Consider 13 sequences from patent US20140031261.

Sequences of proteins named here, by UniProt entry; tags and fusion partners are left off. A change or cut given only in a name is not applied to a line headed by its entry.
UniProt Q46731: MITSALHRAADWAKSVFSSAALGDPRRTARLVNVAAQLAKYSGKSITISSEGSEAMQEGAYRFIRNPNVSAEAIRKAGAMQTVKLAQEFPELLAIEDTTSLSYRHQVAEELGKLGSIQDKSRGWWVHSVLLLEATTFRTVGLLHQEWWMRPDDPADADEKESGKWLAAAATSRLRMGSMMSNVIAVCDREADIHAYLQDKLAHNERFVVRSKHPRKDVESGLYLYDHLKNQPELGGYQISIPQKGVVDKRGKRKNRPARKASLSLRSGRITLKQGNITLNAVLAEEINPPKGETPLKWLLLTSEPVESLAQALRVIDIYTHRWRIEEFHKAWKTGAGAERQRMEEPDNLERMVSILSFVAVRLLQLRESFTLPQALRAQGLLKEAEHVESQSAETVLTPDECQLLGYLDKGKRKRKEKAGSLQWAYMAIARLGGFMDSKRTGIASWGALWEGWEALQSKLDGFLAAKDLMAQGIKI

The exact form of at least one protein or probe is not confirmed. For some of these results: The comparison behind a weaker result is the experiment's own reference, which may not be listed here.

One series concerns the target hyperactive Tn5 transposase (UniProt Q46731). The experiment in a line: activity assay. The conditions noted are these: in vitro transposition, dilution in parallel with ME; Tm 58 C vs 44 C; purified recombinant protein; protein details: 10 U/ul stock.
Turning to “CGTTGTGTGGACGAGACAG (double strand) [11G:C(G1)]”, the “activity on this sequence” value is “active”.

For another series the target is unchanged. The experiment in a line: enzyme reaction in vitro. The conditions noted are these: 5'-phosphorylated end sequence; tagmentation; Mg2+, 37 C; purified recombinant protein; protein details: 10 U/ul stock.
For the sequence “AGATGTGTATAAGAGACAG / CTGTCTCT [ME / 8-base non-transferred]”, the “activity on this sequence” value is listed as “less active”. Still for that read-out and setting: to “AGATGTGTATAAGAGACAG / CTGTCTCTTAT [ME / 11-base non-transferred]” belongs “less active”; to “AGATGTGTATAAGAGACAG / CTGTCTCTTATACA [ME / 14-base non-transferred]”, “active”; to “AGATGTGTATAAGAGACAG / CTGTCTCTTA [ME / 10-base non-transferred]”, “less active”. The same measure, in the same setting: to “AGATGTGTATAAGAGACAG / CTGTCTCTTATAC [ME / 13-base non-transferred]” belongs “active”; to “AGATGTGTATAAGAGACAG (double strand) [ME transferred strand / 19-base non-transferred strand]”, “active”. The same measure, in the same setting: to “AGATGTGTATAAGAGACAG / CTGTCTCTTATA [ME / 12-base non-transferred]” belongs “active”; to “AGATGTGTATAAGAGACAG / CTGTCTCTTATACACATC [ME / 18-base non-transferred]”, “active”; to “AGATGTGTATAAGAGACAG / CTGTCTCTTATACACA [ME / 16-base non-transferred]”, “active”. Take “AGATGTGTATAAGAGACAG / CTGTCTCTT [ME / 9-base non-transferred]”: the “activity on this sequence” value is “less active”. For the sequence “AGATGTGTATAAGAGACAG / CTGTCTCTTATACACAT [ME / 17-base non-transferred]”, the “activity on this sequence” value is reported as “active”.

Take “AGATGTGTATAAGAGACAG / CTGTCTCTTATACAC [ME / 15-base non-transferred]”: the “activity on this sequence” value was “active”.
